# Source: patent US20220153786A1, “PEPTIDES FOR PREVENTING BIOFILM FORMATION” (priority 2019, published 2022)
# At least one peptide structure holds a part that was inferred or is arguable (an end, a ring closure or a residue). Where a SMILES comes first, the peptide text is derived from it.
# Experiments:
# [1] = tested on: Staphylococcus epidermidis ATCC 35984; test: Bacterial growth assay, microtiter plates OD600; assay type: cell-based; conditions: peptide concentration 10 μM; untreated growth control = 100%
# Protocol: Bacterial growth assays. Microtiter plates: bacterial growth was evaluated by difference between the optical density absorbance at 600 nm measured at the end and the beginning of the incubation time (37° C., 1, 4 or 24 h) in 96-well poly(vinyl chloride) microtiter plates. Rifampicin 16 μg/mL (Sigma-Aldrich Co., USA) was used as a control for bacterial growth inhibition. Colony-forming units (CFU/mL): after incubation (37° C., 24 h) the CFU was calculated to determine bactericidal effect of peptide solution. Untreated growth control was considered 100% of planktonic cells. All assays were at least performed as technical and biological triplicates.
# Microtiter plates: Bacterial growth was evaluated by comparing OD600 values at the start and end of incubation in 96-well PVC microtiter plates.
# [2] = tested on: Staphylococcus epidermidis ATCC 35984; test: Colony-forming units (CFU/mL) after peptide exposure; assay type: cell-based; conditions: 24 h exposure, 10 μM
# [3] = tested on: Staphylococcus epidermidis RP62A (ATCC 35984) biofilm; test: Biofilm formation inhibition, crystal violet in 96-well PVC microtiter plates; assay type: cell-based; conditions: for biofilm reduction: 10 μM; for biofilm reduction / antibiofilm activity: 24 h, crystal violet; for antibiofilm activity: tested at 1, 10, 25 or 100 μM
# Protocol: Biofilm formation. […] Biofilm inhibition: a protocol adapted from Zimmer et al. (2013) Environmental Microbiology 15:2008-2018 and Trentin et al. (2015) Scientific Reports 5:8287, employing crystal violet in 96-well poly(vinyl chloride) microtiter plates (Falcon; Becton Dickinson Labware, Oxnard, Calif.) was used. Briefly, 100 μL of the bacterial suspension, 100 μL of the peptide solution (at different concentrations) or vehicle (to controls) and 50 μL of tryptone soya broth (TSB, Oxoid Ltd., England). Following 37° C. for 1, 4 or 24 h of incubation, the content of the wells was removed and the wells were washed three times with sterile saline. The remaining contents were heat-fixed at 60° C. for 1 h. The adherent biofilm layer formed was stained with 0.4% crystal violet for 15 min at room temperature and then washed three times with distilled water. The stain bound to the cells was solubilized with absolute ethanol (Sigma-Aldrich Co., USA) and absorbance was measured at 570 nm (Powerwave™ XS Plate Reader, BIO-TEK Instruments®, Inc.). The biofilm formation controls represent 100% of biofilm formation. Biofilm eradication: biofilm was pre-formed as described before, during 24 h at 37° C., without treatment. After biofilm formation, the wells were washed to remove the planktonic cells and the peptides solutions and controls were added and incubated for 24 h. The eradication was verified by evaluating the remaining content by crystal violet.
# Biofilm formation inhibition: A protocol adapted from Trentin et al. (2015) Scientific Reports 5 was used, with crystal violet in 96-well BD Falcon polyvinyl chloride (PVC) microtiter plates. The cell-bound stains were solubilized with absolute ethanol (Sigma-Aldrich), and absorbance was measured at 570 nm using a BIO-TEK PowerWave XS plate reader. The biofilm formation control represents 100% of biofilm formation.
# [4] = tested on: pre-existing S. epidermidis biofilm; test: Biofilm eradication of pre-formed biofilm, crystal violet; assay type: cell-based, Staphylococcus epidermidis; conditions: 100 μM, 24 h, crystal violet total biomass
structure (smiles),measurement,setting,value
CC[C@H](C)[C@H](NC(=O)[C@H](CCC(N)=O)NC(=O)[C@H](CCC(N)=O)NC(=O)[C@H](CCC(N)=O)NC(=O)[C@H](CS)NC(=O)[C@H](CO)NC(=O)[C@@H](N)CCCNC(=N)N)C(=O)N[C@@H](CCC(N)=O)C(=O)N[C@@H](CCC(N)=O)C(=O)N[C@@H](C)C(=O)N[C@@H](CCC(N)=O)C(=O)N[C@@H](CCC(N)=O)C(=O)N[C@@H](CC(C)C)C(=O)N[C@@H](CO)C(=O)N[C@@H](CO)C(=O)N[C@@H](CS)C(=O)N[C@@H](CCC(N)=O)C(=O)N[C@@H](CCC(N)=O)C(=O)N[C@@H](Cc1ccc(O)cc1)C(=O)N[C@@H](CC(C)C)C(=O)N[C@@H](CCCCN)C(=O)N[C@@H](CCC(N)=O)C(=O)O [P3] (H-RSCQQQIQQAQQLSSCQQYLKQ-OH),Growth (%),[1],108.8%
same,colony forming units (CFU) after peptide exposure,[2]; listed as SEQ ID NO: 2,not affected
same,colony forming units (CFU) after peptide exposure,[2]; listed as capsicumicine,unchanged
same,biofilm reduction,[3],over 91%
same,biofilm reduction,[3]; listed as SEQ ID NO: 2,more than 90%
same,antibiofilm activity,[3],particularly strong antibiofilm activity
same,antibiofilm activity,[3]; listed as SEQ ID NO: 2,strong antibiofilm activity from 1 μM
same,Remanescent biofilm (%),"[3]; peptide concentration 10 μM, biofilm formation control = 100%",13.9%
same,disruption of pre-existing biofilm,[4],about 15%
